Literature values, collected in patent publication US20090214648A1 (priority 2008, published 2009).

SMILES: CC(C)Cc1ccc(C(C)C(=O)O)cc1 (centres unmarked) [Ibuprofen, 2-[4-(2-methylpropyl)phenyl]propanoic acid]
- Solubility in organic solvents (alcohol, chloroform, acetone, methanol, ether and dichloromethane): soluble
- Solubility in water (water): practically insoluble
